Source: publication PMC3355305, “Localized Dimerization and Nucleoid Binding Drive Gradient Formation by the Bacterial Cell Division Inhibitor MipZ” (Molecular Cell, 2012)

Target: T1, ParB, bacterial two-hybrid fusion (Caulobacter crescentus) (UniProt P0CAV8)
T1 sequence: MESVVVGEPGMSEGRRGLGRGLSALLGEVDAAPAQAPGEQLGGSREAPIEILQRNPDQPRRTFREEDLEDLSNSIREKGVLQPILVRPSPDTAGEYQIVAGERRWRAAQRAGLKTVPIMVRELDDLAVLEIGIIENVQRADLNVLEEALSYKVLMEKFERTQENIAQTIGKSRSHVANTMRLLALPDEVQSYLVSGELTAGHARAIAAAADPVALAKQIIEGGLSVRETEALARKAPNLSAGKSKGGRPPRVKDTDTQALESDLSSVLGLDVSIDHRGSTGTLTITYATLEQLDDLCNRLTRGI
Test: two-hybrid; bacterial two-hybrid, E. coli BTH101, T18 and T25 fragments of adenylate cyclase; interaction evidenced by red colonies

Substance	binding
MipZ (wild type), bacterial two-hybrid fusion (Caulobacter crescentus)	binds
MipZ-D42A, bacterial two-hybrid fusion (Caulobacter crescentus)	no binding
MipZ-G14V, bacterial two-hybrid fusion (Caulobacter crescentus)	binds
MipZ-K13A, bacterial two-hybrid fusion (Caulobacter crescentus)	binds
MipZ-K18Q, bacterial two-hybrid fusion (Caulobacter crescentus)	binds

These are yes or no findings as the source states them, for the method shown. Binding calls can cover weak binding; strength is not graded here. Where a sequence is shown, tags or fusion partners need not be part of it.
